From article PMC5061711
Results are given in words; binding and its absence hold for the method and conditions named. Binding seen in cells or lysates may run through a third protein. Some results given as binding are weak or reduced against the parent protein; the word gives no strength. Where a sequence is shown, tags or fusion partners need not be part of it.

T1: HycE, [NiFe]-hydrogenase catalytic subunit of formate hydrogenlyase, with internal His-tag (E. coli) (UniProt P16431)
T1 sequence: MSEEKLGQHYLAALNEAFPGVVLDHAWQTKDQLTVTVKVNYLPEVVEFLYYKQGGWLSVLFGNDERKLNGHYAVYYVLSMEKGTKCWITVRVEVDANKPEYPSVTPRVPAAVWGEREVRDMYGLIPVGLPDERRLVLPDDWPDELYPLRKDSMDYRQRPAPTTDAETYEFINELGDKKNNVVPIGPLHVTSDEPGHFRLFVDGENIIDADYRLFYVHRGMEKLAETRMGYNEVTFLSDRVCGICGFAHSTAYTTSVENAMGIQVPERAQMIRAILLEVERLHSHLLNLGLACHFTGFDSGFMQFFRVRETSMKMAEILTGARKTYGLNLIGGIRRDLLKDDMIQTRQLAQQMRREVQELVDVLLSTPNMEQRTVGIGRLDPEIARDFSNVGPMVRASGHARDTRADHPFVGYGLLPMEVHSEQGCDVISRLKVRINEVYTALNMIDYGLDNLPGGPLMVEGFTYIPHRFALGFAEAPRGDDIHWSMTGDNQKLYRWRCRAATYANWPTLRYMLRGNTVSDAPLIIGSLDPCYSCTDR

B1: FDH-H, formate dehydrogenase subunit of formate hydrogenlyase (FdhF) (protein, UniProt P07658 1-715)
chain: MKKVVTVCPYCASGCKINLVVDNGKIVRAEAAQGKTNQGTLCLKGYYGWDFINDTQILTPRLKTPMIRRQRGGKLEPVSWDEALNYVAERLSAIKEKYGPDAIQTTGSSRGTGNETNYVMQKFARAVIGTNNVDCCARVUHGPSVAGLHQSVGNGAMSNAINEIDNTDLVFVFGYNPADSHPIVANHVINAKRNGAKIIVCDPRKIETARIADMHIALKNGSNIALLNAMGHVIIEENLYDKAFVASRTEGFEEYRKIVEGYTPESVEDITGVSASEIRQAARMYAQAKSAAILWGMGVTQFYQGVETVRSLTSLAMLTGNLGKPHAGVNPVRGQNNVQGACDMGALPDTYPGYQYVKDPANREKFAKAWGVESLPAHTGYRISELPHRAAHGEVRAAYIMGEDPLQTDAELSAVRKAFEDLELVIVQDIFMTKTASAADVILPSTSWGEHEGVFTAADRGFQRFFKAVEPKWDLKTDWQIISEIATRMGYPMHYNNTQEIWDELRHLCPDFYGATYEKMGELGFIQWPCRDTSDADQGTSYLFKEKFDTPNGLAQFFTCDWVAPIDKLTDEYPMVLSTVREVGHYSCRSMTGNCAALAALADEPGYAQINTEDAKRLGIEDEALVWVHSRKGKIITRAQVSDRPNKGAIYMTYQWWIGACNELVTENLSPITKTPEYKYCAVRVEPIADQRAAEQYVIDEYNKLKTRLREAALA
modifications: selenocysteine at the active site (position not given)
B2: HycF, [FeS]-cluster protein of formate hydrogenlyase (protein, UniProt P16432 1-180)
chain: MFTFIKKVIKTGTATSSYPLEPIAVDKNFRGKPEQNPQQCIGCAACVNACPSNALTVETDLATGELAWEFNLGHCIFCGRCEEVCPTAAIKLSQEYELAVWKKEDFLQQSRFALCNCRVCNRPFAVQKEIDYAIALLKHNGDSRAENHRESFETCPECKRQKCLVPSDRIELTRHMKEAI
B3: HycB, [FeS]-cluster protein of formate hydrogenlyase (protein, UniProt P0AAK1 1-203)
chain: MNRFVIADSTLCIGCHTCEAACSETHRQHGLQSMPRLRVMLNEKESAPQLCHHCEDAPCAVVCPVNAITRVDGAVQLNESLCVSCKLCGIACPFGAIEFSGSRPLDIPANANTPKAPPAPPAPARVSTLLDWVPGIRAIAVKCDLCSFDEQGPACVRMCPTKALHLVDNTDIARVSKRKRELTFNTDFGDLTLFQQAQSGEAK
B4: HycG, Hyd-3 small subunit of formate hydrogenlyase (protein, UniProt P16433 1-255)
chain: MSNLLGPRDANGIPVPMTVDESIASMKASLLKKIKRSAYVYRVDCGGCNGCEIEIFATLSPLFDAERFGIKVVPSPRHADILLFTGAVTRAMRSPALRAWQSAPDPKICISYGACGNSGGIFHDLYCVWGGTDKIVPVDVYIPGCPPTPAATLYGFAMALGLLEQKIHARGPGELDEQPAEILHGDMVQPLRVKVDREARRLAGYRYGRQIADDYLTQLGQGEEQVARWLEAENDPRLNEIVSHLNHVVEEARIR
B5: HycC, integral membrane subunit of formate hydrogenlyase (protein, UniProt P16429 1-608)
chain: MSAISLINSGVAWFVAAAVLAFLFSFQKALSGWIAGIGGAVGSLYTAAAGFTVLTGAVGVSGALSLVSYDVQISPLNAIWLITLGLCGLFVSLYNIDWHRHAQVKCNGLQINMLMAAAVCAVIASNLGMFVVMAEIMALCAVFLTSNSKEGKLWFALGRLGTLLLAIACWLLWQRYGTLDLRLLDMRMQQLPLGSDIWLLGVIGFGLLAGIIPLHGWVPQAHANASAPAAALFSTVVMKIGLLGILTLSLLGGNAPLWWGIALLVLGMITAFVGGLYALVEHNIQRLLAYHTLENIGIILLGLGAGVTGIALEQPALIALGLVGGLYHLLNHSLFKSVLFLGAGSVWFRTGHRDIEKLGGIGKKMPVISIAMLVGLMAMAALPPLNGFAGEWVIYQSFFKLSNSGAFVARLLGPLLAVGLAITGALAVMCMAKVYGVTFLGAPRTKEAENATCAPLLMSVSVVALAICCVIGGVAAPWLLPMLSAAVPLPLEPANTTVSQPMITLLLIACPLLPFIIMAICKGDRLPSRSRGAAWVCGYDHEKSMVITAHGFAMPVKQAFAPVLKLRKWLNPVSLVPGWQCEGSALLFRRMALVELAVLVVIIVSRGA
B6: HycD, integral membrane subunit of formate hydrogenlyase (protein, UniProt P16430 1-307)
chain: MSVLYPLIQALVLFAVAPLLSGITRVARARLHNRRGPGVLQEYRDIIKLLGRQSVGPDASGWVFRLTPYVMVGVMLTIATALPVVTVGSPLPQLGDLITLLYLFAIARFFFAISGLDTGSPFTAIGASREAMLGVLVEPMLLLGLWVAAQVAGSTNISNITDTVYHWPLSQSIPLVLALCACAFATFIEMGKLPFDLAEAEQELQEGPLSEYSGSGFGVMKWGISLKQLVVLQMFVGVFIPWGQMETFTAGGLLLALVIAIVKLVVGVLVIALFENSMARLRLDITPRITWAGFGFAFLAFVSLLAA

What follows are binders tested against T1, HycE, [NiFe]-hydrogenase catalytic subunit of formate hydrogenlyase, with internal His-tag (E. coli) (assay: pull-down; IMAC purification by the internal His-tag on HycE from E. coli EHisdCD (deletion of hycC and hycD), grown fermentatively; subunits seen by SDS-PAGE).

binding	Binder
binds	B1
binds	B2
binds	B3
binds	B4

Each binder was assayed against T1, HycE, [NiFe]-hydrogenase catalytic subunit of formate hydrogenlyase, with internal His-tag (E. coli) (assay: pull-down; IMAC purification of the FHL complex by the internal His-tag on HycE from E. coli MG059e1; membranes dispersed in a detergent cocktail, purified in dodecyl maltoside buffer; subunits seen by SDS-PAGE).

binding	Binder
binds	B1
binds	B2
binds	B3
binds	B4
binds	B5
binds	B6

What follows are binders tested against T1, HycE, [NiFe]-hydrogenase catalytic subunit of formate hydrogenlyase, with internal His-tag (E. coli) (assay: pull-down; purification of HycE^His from the MG059e1 derivative carrying the HycD E199/201/203A allele on the chromosome; data not shown).

binding	Binder
binds	B1
binds	B2
binds	B3
binds	B4
